{"sequences": {"note": "Sequences of proteins named here, by UniProt entry; tags and fusion partners are left off.", "UniProt P18054, whole entry, looked up": "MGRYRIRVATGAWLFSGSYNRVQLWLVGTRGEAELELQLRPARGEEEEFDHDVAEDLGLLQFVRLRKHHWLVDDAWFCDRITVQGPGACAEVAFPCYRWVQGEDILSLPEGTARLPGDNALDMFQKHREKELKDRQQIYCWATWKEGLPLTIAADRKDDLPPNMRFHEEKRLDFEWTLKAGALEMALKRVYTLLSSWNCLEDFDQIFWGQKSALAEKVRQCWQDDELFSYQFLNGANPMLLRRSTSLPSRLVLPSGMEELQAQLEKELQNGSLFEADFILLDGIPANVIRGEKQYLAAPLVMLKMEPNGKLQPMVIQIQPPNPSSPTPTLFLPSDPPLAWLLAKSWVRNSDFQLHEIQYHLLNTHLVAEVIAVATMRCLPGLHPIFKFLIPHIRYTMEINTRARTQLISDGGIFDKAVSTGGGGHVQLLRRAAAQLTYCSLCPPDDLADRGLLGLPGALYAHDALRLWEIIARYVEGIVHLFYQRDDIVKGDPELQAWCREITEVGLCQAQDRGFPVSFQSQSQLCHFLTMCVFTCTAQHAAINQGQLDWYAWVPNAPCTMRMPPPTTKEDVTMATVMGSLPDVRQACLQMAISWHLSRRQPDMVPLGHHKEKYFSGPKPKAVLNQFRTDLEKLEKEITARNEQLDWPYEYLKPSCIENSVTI"}, "source": "PubChem BioAssay AID1671190", "about": "(National Center for Advancing Translational Sciences (NCATS), 2021)", "note": "The campaign covered roughly 580,000 compounds. About 6,100 (1.1%) were called active. Inconclusive means that the source gave no clear call. Such entries were picked first, then a sample of the others. The call rests on the fitted dose curve; in most records, active means well fitted inhibition curve with a large enough effect; inconclusive means small, poorly fitted or top-dose-only effect, or another doubt; inactive means no such curve, though single readings can be large or run the other way. Potencies beside an inconclusive call are fits to weak or partial responses and may not hold up."}
{"molecular_target": "Polyunsaturated fatty acid lipoxygenase ALOX12 (Homo sapiens) (UniProt P18054)", "experiment": "Primary qHTS assay for inhibitors of human arachidonate 12S-lipoxygenase (ALOX12): Round 2; further: potency means the concentration at half of the fitted maximal effect; on activity change, negative = inhibition: on the % scale 0 is the no-effect control and ±100 the full control effect", "settings": "purified 12hLO, xylenol orange hydroperoxide absorbance; activity change, negative = inhibition: at 108 µM (top of the series) unless noted", "summary_of_the_method": "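Purified human 12hLO at 150 nM in 25 mM Hepes, 0.01% Triton X-100, pH 7.0, preincubated 15 min at room temperature with compound. Reaction started with 40 uM arachidonic acid, 30 min at room temperature. Hydroperoxide measured by Fe-xylenol orange, 573/405 nm absorbance ratio.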"}
{"compound": "Cc1cc(C)c(S(=O)(=O)N2CCCCC2CCNC(=O)C(=O)NCc2ccccn2)c(C)c1", "note": "(stereo not drawn)", "Potency": "inconclusive: 56.2 µM [inhibitor, partial curve, poor fit]"}
{"compound": "COC(=O)C1=CNC=C(C(=O)OC)C1c1ccccc1F", "Potency": "inconclusive: 100 µM [inhibitor, single point]"}
{"compound": "COc1cc(/C=N\\NC(=O)c2ccc(-c3ccccc3)cc2)cc(OC)c1O", "Potency": "inconclusive: 100 µM [inhibitor, partial curve, poor fit]"}
{"compound": "CC1CC(C)(C)NC(=S)N1CCCC(=O)Nc1ccc(F)c(F)c1", "note": "(stereo not drawn)", "Potency": "inconclusive: 44.7 µM [inhibitor, partial curve, poor fit]"}
{"compound": "COc1ccccc1COc1cccn2c(N(C)C(=O)CCC3CCCC3)c(C)nc12", "Potency": "inconclusive: 1.78 µM [inhibitor, full curve, poor fit]"}
{"compound": "CCOc1ccc2c(c1)c(=O)c(C(=O)c1ccccc1)cn2Cc1ccccc1F", "activity change, negative = inhibition": "inactive: -13.5%"}
{"compound": "COc1ccc(CCNC(=O)c2cnn(-c3cccc(C)c3)c2C2CCNCC2)cc1OC", "Potency": "inconclusive: 89.1 µM [inhibitor, partial curve, poor fit]"}
{"compound": "CN1C(=O)Cc2cc(S(=O)(=O)CCC(=O)Nc3ccc(Cl)cc3)ccc21", "Potency": "inconclusive: 79.4 µM [inhibitor, partial curve, poor fit]"}
{"compound": "O=S(=O)(NC1CCSc2c(F)cccc21)c1ccc(Br)cc1", "note": "(stereo not drawn)", "Potency": "inconclusive: 70.8 µM [inhibitor, partial curve, poor fit]"}
{"compound": "COc1ccc(CNc2oc(COc3ccc(Cl)cc3)nc2C#N)cc1", "activity change, negative = inhibition": "inactive: -27.1%"}
{"compound": "CCOC(=O)N1CCN(CC(=O)Nc2ccccc2C(=O)Nc2ccccc2)CC1", "activity change, negative = inhibition": "inactive: 4.81%"}
{"compound": "c1cncc(-c2cc(-c3cccc4cc[nH]c34)cn3cncc23)c1", "activity change, negative = inhibition": "inactive: 5.79% [at 176 µM]"}
{"compound": "Cc1cccc(C(O)c2cnc(C)n2Cc2ccccc2)c1", "note": "(stereo not drawn)", "activity change, negative = inhibition": "inactive: 4.24%"}
{"compound": "CC1(C)CC2CC(C)(CN2C(=O)COC(=O)c2cc(Cl)cc(Cl)c2N)C1", "note": "(stereo not drawn)", "activity change, negative = inhibition": "inactive: 1%"}
{"compound": "CC(C)Cc1cc(CN2CCC(CO)(Cc3cccc(C(F)(F)F)c3)CC2)[nH]n1", "activity change, negative = inhibition": "inactive: -13.8%"}
{"compound": "CC(OC(=O)c1cc(Cl)ccc1[N+](=O)[O-])C(=O)NC(C)c1ccc(F)cc1", "note": "(stereo not drawn)", "Potency": "inconclusive: 112 µM [inhibitor, partial curve, poor fit]"}
{"compound": "COc1cccc(OC)c1C(=O)NC(=S)N1CCN(c2ccc(C(F)(F)F)cc2[N+](=O)[O-])CC1", "activity change, negative = inhibition": "inactive: 1.69%"}
{"compound": "CCC(=O)c1ccccc1OCCCN1CCC(Cc2ccccc2)CC1", "Potency": "active: 6.31 µM"}
{"compound": "Cc1cc(C)n2c(Nc3ccc4c(c3)OCCO4)c(-c3ccccc3)nc2n1", "Potency": "inconclusive: 112 µM [inhibitor, partial curve, poor fit]"}
{"compound": "COc1cc(OC)c2c(-c3cccc(-c4ccc(C(F)(F)F)cc4)c3)cc(=O)oc2c1", "Potency": "inconclusive: 2.82 µM [inhibitor, full curve, poor fit]"}
{"compound": "COc1ccc(Nc2nccc3[nH]c(-c4ccccc4OC)cc23)cc1", "Potency": "inconclusive: 44.7 µM [inhibitor, partial curve, poor fit]"}
{"compound": "COc1ccc(OC)c(CN2CCC(C(=O)N(C)CCc3ccc(OC)c(OC)c3)CC2)c1", "Potency": "inconclusive: 2.82 µM [inhibitor, full curve]"}
{"compound": "CCOc1ccc(-c2cccc(NC(=O)c3ccco3)c2)nn1", "Potency": "inconclusive: 20 µM [inhibitor, partial curve, poor fit]"}
{"compound": "O=C(CCc1cc2n(n1)CCNC2)N1CCN(C(=O)c2cccs2)CC1", "Potency": "inconclusive: 14.1 µM [inhibitor, full curve]"}
{"compound": "CC(C)(C)S(=O)N1Cc2cc(=O)n(Cc3ccccc3)cc2[C@@H]1CCO", "note": "(stereo partly drawn)", "Potency": "inconclusive: 20 µM [inhibitor, full curve]"}
{"compound": "CN(C)CCCNCc1ccccc1", "Potency": "inconclusive: 17.8 µM [inhibitor, single point]"}
{"compound": "CCOc1cc(/C=N\\NC(=O)OC(C)(C)C)ccc1OC(=O)c1ccco1", "Potency": "inconclusive: 3.98 µM [inhibitor, full curve, poor fit]"}
{"compound": "NS(=O)(=O)c1cccc(NC(=O)CCC(=O)c2cccs2)c1", "activity change, negative = inhibition": "inactive: 0.0953%"}
{"compound": "COc1cc2ncnc(Nc3cccc(Br)c3)c2cc1OC", "Potency": "inconclusive: 28.2 µM [inhibitor, single point]"}
{"compound": "CCCNc1c(NC(=O)NC2(CC(=O)OCC)CCCCC2)c(=O)oc2ccccc12", "activity change, negative = inhibition": "inactive: 18.1%"}
{"compound": "COC(=O)CCC(=O)OC1(C)C(=O)C2=CN(C3CC3)C(c3ccc(OC)cc3)=CC2=C(Br)C1=O", "note": "(stereo not drawn)", "Potency": "inconclusive: 79.4 µM [inhibitor, single point]"}
{"compound": "COCCN1C(=O)c2[nH]nc(-c3ccccc3O)c2C1c1ccc(OC)cc1", "note": "(stereo not drawn)", "activity change, negative = inhibition": "inactive: 0.737%"}
{"compound": "CCN(CC)CCN(C(=O)c1cc(Cl)sc1Cl)c1nc2cc3c(cc2s1)OCO3", "Potency": "inconclusive: 50.1 µM [inhibitor, partial curve, poor fit]"}
